Experimental data: PubChem BioAssay AID1224826 (NIAID, 2016)
The whole screen tested about 17,000 reagents; below is an unselected part. Over the whole deposit, about 1,110 (6.6%) got an active call. 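Active means lowered or raised reporter signal; replicate intensities are raw and not normalised per plate.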 Not all columns of the deposit are shown.

Screen: 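Genes that change LPS-induced Tnf promoter activity in mouse macrophages when knocked down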 (primary screen)
Cell system: RAW264.7 G9 macrophages from mouse bearing reporters for p65 (GFP) and the Tnf promoter (mCherry)
Knock-down reagent: siRNA pool against mouse genes, 100 nM
Timing: 16 h of LPS stimulation, after 2 days of siRNA transfection
Conditions: bacterial lipopolysaccharide (Salmonella minnesota R595), 10 ng/ml
Detection: 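Nuclear mCherry signal of the Tnf promoter reporter measured by imaging after background removal, scaled to each plate median and turned into robust z-scores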
Reading the numbers: Tnf reporter robust z-score: higher = stronger Tnf promoter reporter signal after LPS
Call rule: 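a well counts as active at a score of -1.3 or below (Tlr4 knock-down control median) or above 3 (raised signal); controls and wells holding fewer than 50 cells are excluded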
Calls: active = Tnf reporter clearly lowered or raised; inactive = no clear change in Tnf reporter

With Or1j15 (olfactory receptor family 1 subfamily J member 15), how do the results read?
Tnf reporter robust z-score: -0.89; fewer than 50 cells in well: enough cells in well; outcome: inactive

With Or6c212 (olfactory receptor family 6 subfamily C member 212), what does the deposit list?
Tnf reporter robust z-score: -1.43; fewer than 50 cells in well: enough cells in well; outcome: active

For V1rb5 (retired record), how do the results read?
Tnf reporter robust z-score: 2.51; fewer than 50 cells in well: enough cells in well; outcome: inactive

For Inpp5d (inositol polyphosphate-5-phosphatase D), how do the results read?
Tnf reporter robust z-score: -1.25; fewer than 50 cells in well: enough cells in well; outcome: inactive

For Krtcap2 (keratinocyte associated protein 2), what was measured?
Tnf reporter robust z-score: 0.42; fewer than 50 cells in well: enough cells in well; outcome: inactive

With Ptp4a3 (protein tyrosine phosphatase 4a3), how do the results read?
Tnf reporter robust z-score: -0.48; fewer than 50 cells in well: enough cells in well; outcome: inactive

What did the screen give for Gmppb (GDP-mannose pyrophosphorylase B)?
Tnf reporter robust z-score: 0.89; fewer than 50 cells in well: enough cells in well; outcome: inactive

2 neighbouring records from above, quoted:
Ptp4a3 (protein tyrosine phosphatase 4a3) — Tnf reporter robust z-score = -0.48; fewer than 50 cells in well = enough cells in well; outcome = inactive
Gmppb (GDP-mannose pyrophosphorylase B) — Tnf reporter robust z-score = 0.89; fewer than 50 cells in well = enough cells in well; outcome = inactive

The results go on:
With 2900005J15Rik (RIKEN cDNA 2900005J15 gene), what does the deposit list?
Tnf reporter robust z-score: 3.25; fewer than 50 cells in well: enough cells in well; outcome: active

How did the screen score Prkd1 (protein kinase D1)?
Tnf reporter robust z-score: 0.22; fewer than 50 cells in well: enough cells in well; outcome: inactive

With Pcbp1 (poly(rC) binding protein 1), how do the results read?
Tnf reporter robust z-score: 0.09; fewer than 50 cells in well: enough cells in well; outcome: inactive

How did the screen score Sin3a (SIN3 transcription regulator family member A)?
Tnf reporter robust z-score: 0.08; fewer than 50 cells in well: enough cells in well; outcome: inactive

Which result is listed for Itga4 (integrin alpha 4)?
Tnf reporter robust z-score: -0.84; fewer than 50 cells in well: enough cells in well; outcome: inactive
